Patent US20230192899A1
No constants are given. Whether binding was seen depends on the method and setting. Some entries that bind do so weakly or less than the wild type.

How the values were obtained:
[1] = target: T1, mouse CD47 protein (ELISA coat) (mouse) (UniProt Q61735); test: direct ELISA (FIG. 14)
T1 sequence (looked up): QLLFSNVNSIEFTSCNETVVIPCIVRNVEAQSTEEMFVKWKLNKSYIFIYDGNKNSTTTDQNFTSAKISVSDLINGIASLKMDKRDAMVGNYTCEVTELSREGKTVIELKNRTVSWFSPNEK

[2] = target: T2, mouse membrane-presented CD47 on Tg32 mouse erythrocytes (mouse) (UniProt Q61735); test: flow cytometry on Tg32 mouse erythrocytes (FIG. 21); no signal at 0.1 µg/ml
T2 sequence (looked up): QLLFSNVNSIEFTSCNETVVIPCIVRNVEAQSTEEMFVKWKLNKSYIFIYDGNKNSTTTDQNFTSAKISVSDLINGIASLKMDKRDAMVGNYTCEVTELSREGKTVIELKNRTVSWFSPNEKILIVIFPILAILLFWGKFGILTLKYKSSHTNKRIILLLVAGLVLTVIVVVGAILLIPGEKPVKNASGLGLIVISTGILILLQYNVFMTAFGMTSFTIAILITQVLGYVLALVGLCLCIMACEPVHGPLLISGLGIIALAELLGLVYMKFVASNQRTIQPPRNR

B1: A-D5 anti-CD47 IgG1 (antibody, V domains shown)
VH: QVQLVQSGAEVKKPGESLKISCKGSGYTFTNYYIFWVRQMPGKGLEWMGIINPVDGDTNYNPSFQGQVTISADKSISTAYLQWSSLKASDTAMYYCARGGYTMDRWGQGTLVTVSS
VL: DIVMTQSPLSLPVTPGEPASISCRSSQSLLHSNGYNYLHWYLQKPGQSPQLLIYKVSNRLSGVPDRFSGSGSGTDFTLKISRVEAEDVGVYYCFQNTHTPRTFGGGTKVEIK
[1]
  binding: binds
[2]
  binding: binds
